Assay results as given in patent US7947279B2, “Peptide having hydrolase activity” (The Trustees of Columbia University in the City of New York, priority 2005, dated 2011).
At least one structure is not confirmed: it was looked up by name or label, or the drawing left a doubt.

System: cAMP
Test: Intracellular cAMP enzyme immunoassay
Format: cell-based, rat
Settings: forskolin 10 μM, cultures with and without Aβ
Experimental: Intracellular cAMP Enzyme Immunoassay. Hippocampal neurons from E18 rats were dissociated and plated on poly-L-lysine coated 6-well plates in minimum essential medium supplemented with N-2, glucose, albumin, pyruvic acid, antibiotics and antimycotics. […] After 24 hours, cell lysates were obtained and intracellular cAMP levels were measured using cAMP Biotrak Enzymeimmunoassay (EIA) System (Amersham) in accordance with manufacturer's instructions.

Question: With `C=C[C@@]1(C)CC(=O)[C@]2(O)[C@@]3(C)[C@@H](O)CCC(C)(C)[C@@H]3[C@H](O)[C@H](OC(C)=O)[C@@]2(C)O1` [forskolin, reference compound] as the compound, how does the “cAMP levels” value read?
Answer: Its value is “strong increase in cAMP levels”.
